Assay results: article PMC4253411
No constants are given. Whether binding was seen depends on the method and setting. In cells and extracts the contact can be indirect. Some results given as binding are weak or reduced against the parent protein; the word gives no strength.

Chains of the proteins cited; added tags and fusions are not shown. Residues count along the entry.
UniProt P05556: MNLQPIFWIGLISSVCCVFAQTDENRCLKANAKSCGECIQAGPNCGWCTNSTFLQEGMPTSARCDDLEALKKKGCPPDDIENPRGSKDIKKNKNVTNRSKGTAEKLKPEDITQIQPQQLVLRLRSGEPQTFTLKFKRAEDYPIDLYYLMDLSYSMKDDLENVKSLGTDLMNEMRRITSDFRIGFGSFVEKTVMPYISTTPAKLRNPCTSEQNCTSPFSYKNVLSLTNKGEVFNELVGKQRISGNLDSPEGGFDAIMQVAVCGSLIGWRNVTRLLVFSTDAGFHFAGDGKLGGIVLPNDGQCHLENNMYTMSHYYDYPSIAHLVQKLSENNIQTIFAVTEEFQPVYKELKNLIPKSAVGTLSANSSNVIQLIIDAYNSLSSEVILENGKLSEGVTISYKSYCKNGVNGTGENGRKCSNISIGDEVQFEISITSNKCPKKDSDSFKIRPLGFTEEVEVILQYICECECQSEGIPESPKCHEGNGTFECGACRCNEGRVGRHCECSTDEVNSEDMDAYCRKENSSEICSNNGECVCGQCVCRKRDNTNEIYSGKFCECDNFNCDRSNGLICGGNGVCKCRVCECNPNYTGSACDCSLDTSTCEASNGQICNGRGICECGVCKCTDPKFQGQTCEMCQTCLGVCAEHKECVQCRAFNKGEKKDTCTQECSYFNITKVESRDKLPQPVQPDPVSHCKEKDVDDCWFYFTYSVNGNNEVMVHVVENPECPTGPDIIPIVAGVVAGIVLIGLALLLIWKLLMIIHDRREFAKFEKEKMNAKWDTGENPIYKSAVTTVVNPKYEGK
UniProt P18084, residues 24-799: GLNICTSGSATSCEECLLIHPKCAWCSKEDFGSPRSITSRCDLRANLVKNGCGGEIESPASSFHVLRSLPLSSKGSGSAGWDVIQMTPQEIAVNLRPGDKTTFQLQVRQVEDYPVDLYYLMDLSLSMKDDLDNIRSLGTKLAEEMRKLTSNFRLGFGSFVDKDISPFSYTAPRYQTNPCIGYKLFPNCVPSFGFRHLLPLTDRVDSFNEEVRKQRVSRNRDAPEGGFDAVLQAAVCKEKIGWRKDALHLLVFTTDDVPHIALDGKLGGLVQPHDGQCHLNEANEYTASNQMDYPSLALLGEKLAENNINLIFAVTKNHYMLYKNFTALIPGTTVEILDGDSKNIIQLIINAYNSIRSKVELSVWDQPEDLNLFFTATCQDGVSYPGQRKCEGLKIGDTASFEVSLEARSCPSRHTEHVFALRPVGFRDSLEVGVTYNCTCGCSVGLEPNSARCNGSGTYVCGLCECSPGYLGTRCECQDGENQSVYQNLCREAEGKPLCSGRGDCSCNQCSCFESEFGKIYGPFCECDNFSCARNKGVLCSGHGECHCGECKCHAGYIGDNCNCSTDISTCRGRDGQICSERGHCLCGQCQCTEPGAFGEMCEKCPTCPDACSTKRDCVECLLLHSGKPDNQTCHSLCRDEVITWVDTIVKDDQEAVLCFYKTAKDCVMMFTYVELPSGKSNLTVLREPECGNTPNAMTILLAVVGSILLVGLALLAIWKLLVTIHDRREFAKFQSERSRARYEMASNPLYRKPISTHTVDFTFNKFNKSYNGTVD

How the values were obtained:
[1] = molecular target: integrin β1 (human (endogenous in SKMEL28 and MDA-MB-231)) (UniProt P05556); assay: proximity ligation; in situ PLA (Duolink) on fixed cultured SKMEL28 and MDA-MB-231 cells on chamber slides, transfected with control or Kindlin-3 siRNA; confocal microscopy
[2] = molecular target: integrin β5 (human (endogenous in SKMEL28 and MDA-MB-231)) (UniProt P18084); assay: as above

binding [1]: binds
binding [2]: binds
Substance: Kindlin-3 (from UniProt Q86UX7 1-667)
